Measured values: PMC13399123

Amino acid sequences for entries named in this document (tags omitted). A change or cut given only in a name is not applied to a line headed by its entry. Residues count along the entry.
UniProt Q14247, residues 492-550: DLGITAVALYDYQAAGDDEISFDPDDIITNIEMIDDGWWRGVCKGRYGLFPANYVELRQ
UniProt Q53T59: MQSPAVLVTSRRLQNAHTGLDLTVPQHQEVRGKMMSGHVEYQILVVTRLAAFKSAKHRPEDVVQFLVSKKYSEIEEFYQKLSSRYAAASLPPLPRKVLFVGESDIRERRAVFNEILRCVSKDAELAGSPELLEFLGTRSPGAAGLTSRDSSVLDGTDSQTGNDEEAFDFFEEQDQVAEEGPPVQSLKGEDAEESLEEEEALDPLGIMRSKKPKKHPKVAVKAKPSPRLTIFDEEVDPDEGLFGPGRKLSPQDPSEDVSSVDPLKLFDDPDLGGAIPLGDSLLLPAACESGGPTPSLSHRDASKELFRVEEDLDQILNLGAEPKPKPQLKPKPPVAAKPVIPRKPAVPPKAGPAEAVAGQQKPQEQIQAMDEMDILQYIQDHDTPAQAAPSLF

Target: GST-SH3 (SH3 domain of cortactin fused to GST) (UniProt Q14247)
Experiment: pull-down; equal concentrations of GST-SH3 (on glutathione beads) and purified MBP-tagged HS1BP3 proteins incubated 2 h at 4 °C, six washes with GST-buffer, anti-MBP immunoblot; both purified

Substance | binding
full-length MBP-HS1BP3 PRR3.1 mutant (prolines of PRR3.1 replaced with alanine) (from UniProt Q53T59) | no binding
full-length MBP-HS1BP3 PRR3.2 mutant (prolines of PRR3.2 replaced with alanine) (from UniProt Q53T59) | no binding

Results are given in words; binding and its absence hold for the method and conditions named.
